In PubChem BioAssay AID624291 (National Center for Advancing Translational Sciences (NCATS), 2012):
Out of some 350,000 compounds screened, about 220 (0.063%) were called active. Inconclusive results, whose numbers are uncertain, are shown with a selection of clear calls. The call rests on the fitted dose curve; in most records, active means well fitted activation curve with a large enough effect; inconclusive means small, poorly fitted or top-dose-only effect; inactive means no such curve, though single readings can be large or run the other way. Potencies of inconclusive entries are doubtful fits and often do not repeat.

assay: qHTS for Activators of Integrin-Mediated Alleviation for Muscular Dystrophy; conditions: alpha7betagal myoblasts, beta-gal FDG fluorescence, 48 h; series mostly up to 38.3 µM; further: nearly all actives have a fitted effect of over 60% in size
Method in brief: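 alpha7betagal+/- myoblasts (passage 13, 250/well) treated 48 h at 37C with compounds at 1:260 dilution of DMSO stock. Lysed, then beta-galactosidase activity read as FDG fluorescence (ex 480/em 540) after 30 min, with pre-read for autofluorescence.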
Potency means the concentration at half of the fitted maximal effect.

Compound	Potency
O=S(=O)(Oc1ccccc1N1CCCCC1)c1ccccc1	inconclusive: 2.24 µM [activator, partial curve, poor fit]
CCOc1ccc(/C=N/NC(=O)CCC(=O)Nc2ccc(F)cc2)cc1	inconclusive: 28.2 µM [activator, single point]
CCOC(=O)/C=C/C(=O)Nc1cc(S(=O)(=O)Nc2ccc(OC)cc2)ccc1N1CCOCC1	inactive
COc1ccc(C(CNC(=O)Cc2cccs2)N(C)C)cc1 (stereo unspecified)	inconclusive: 5.01 µM [activator, single point]
CC(C)c1ccc(NC(=O)NC2CC3CCC(C2)N3Cc2cccs2)cc1 (stereo unspecified)	inactive
CC1CN(C(=O)c2cc3cc([N+](=O)[O-])ccc3s2)CC(C)O1 (stereo unspecified)	inconclusive: 28.2 µM [activator, single point]
O=C(/C=C/NNC(=O)c1ccccc1O)c1ccccc1	inactive
CCCCOCC1CC(CC#CCN2CCCCC2)C(=O)O1 (stereo unspecified)	inconclusive: 3.16 µM [activator, single point]
CCOC(=O)C1(Cc2cccc(Cl)c2)CCCN(C(=O)c2cc(C)[nH]n2)C1 (stereo unspecified)	inactive
Cc1c(C(=O)OCC(=O)N2CCCCC2C)oc2ccccc12 (stereo unspecified)	inconclusive: 14.1 µM [activator, single point]
N#CC1(c2ccc(NC(=O)c3ccccc3F)cc2)CCCC1	inconclusive: 5.01 µM [activator, single point]
CC(C)CC(C(=O)O)N1C(=O)C2C3c4ccccc4C(c4ccccc43)[C@@H]2C1=O (stereo partly specified)	inactive
COc1ccc(Cc2nnc(NC(=O)c3ccccc3C)s2)cc1	inconclusive: 1.58 µM [activator, partial curve, poor fit]
CCOc1ccc(C(=S)N2CCOCC2)cc1OC	inactive
COC(=O)Cc1ccc(NC(=S)N2CCN(c3cc(Cl)ccc3C)CC2)cc1	inactive
Cc1ccc(NC(=O)C2CSC3(C)CCC(=O)N23)cc1S(=O)(=O)N1CCCCCC1 (stereo unspecified)	inconclusive: 5.01 µM [activator, full curve, poor fit]
COc1cccc(CC(=O)OCC(=O)NC2CCCCCC2)c1	inconclusive: 5.01 µM [activator, single point]
COc1cc(OC)cc(-c2sc3ccc(OC)cc3c2C#CC(C)(C)O)c1	inactive
O=C(Nc1ccccc1N1CCOCC1)c1cccc(F)c1	inconclusive: 0.891 µM [activator, full curve, poor fit]
O=C(COc1ccc(-c2ccccc2)cc1)N/N=C/c1cc(O)ccc1Br	inactive
COc1cnc(-c2cccc(C(F)(F)F)c2)nc1OC	inconclusive: 10 µM [activator, single point]

Retrieved one by one from above, two records:
Compound	Potency
O=C(Nc1ccccc1N1CCOCC1)c1cccc(F)c1	inconclusive: 0.891 µM [activator, full curve, poor fit]
COc1cnc(-c2cccc(C(F)(F)F)c2)nc1OC	inconclusive: 10 µM [activator, single point]
